Experimental data: publication PMC7104860

T1: lamin-conjugated miniTurboID tagged with V5 (V5-mT-Lamin) (Drosophila) (UniProt P08928)
T1 sequence: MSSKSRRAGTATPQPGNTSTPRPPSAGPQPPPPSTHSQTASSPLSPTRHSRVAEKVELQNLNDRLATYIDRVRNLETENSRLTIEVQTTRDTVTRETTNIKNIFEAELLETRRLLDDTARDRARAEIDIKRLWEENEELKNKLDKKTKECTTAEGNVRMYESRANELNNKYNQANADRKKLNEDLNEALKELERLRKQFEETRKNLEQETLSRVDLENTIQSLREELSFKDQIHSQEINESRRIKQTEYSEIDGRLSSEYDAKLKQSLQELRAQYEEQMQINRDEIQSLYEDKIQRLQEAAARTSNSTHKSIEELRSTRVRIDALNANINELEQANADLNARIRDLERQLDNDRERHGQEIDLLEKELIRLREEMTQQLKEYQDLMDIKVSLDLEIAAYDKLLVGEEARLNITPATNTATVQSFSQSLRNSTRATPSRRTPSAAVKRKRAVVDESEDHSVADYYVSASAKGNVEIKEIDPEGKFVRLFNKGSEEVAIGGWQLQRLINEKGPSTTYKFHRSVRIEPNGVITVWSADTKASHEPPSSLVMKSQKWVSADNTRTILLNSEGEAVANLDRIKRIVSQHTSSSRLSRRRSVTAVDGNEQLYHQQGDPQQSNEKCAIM

T2: Flag-tagged PIG-B (PIG-B-Flag) (Drosophila) (UniProt Q9VZM5)
T2 sequence: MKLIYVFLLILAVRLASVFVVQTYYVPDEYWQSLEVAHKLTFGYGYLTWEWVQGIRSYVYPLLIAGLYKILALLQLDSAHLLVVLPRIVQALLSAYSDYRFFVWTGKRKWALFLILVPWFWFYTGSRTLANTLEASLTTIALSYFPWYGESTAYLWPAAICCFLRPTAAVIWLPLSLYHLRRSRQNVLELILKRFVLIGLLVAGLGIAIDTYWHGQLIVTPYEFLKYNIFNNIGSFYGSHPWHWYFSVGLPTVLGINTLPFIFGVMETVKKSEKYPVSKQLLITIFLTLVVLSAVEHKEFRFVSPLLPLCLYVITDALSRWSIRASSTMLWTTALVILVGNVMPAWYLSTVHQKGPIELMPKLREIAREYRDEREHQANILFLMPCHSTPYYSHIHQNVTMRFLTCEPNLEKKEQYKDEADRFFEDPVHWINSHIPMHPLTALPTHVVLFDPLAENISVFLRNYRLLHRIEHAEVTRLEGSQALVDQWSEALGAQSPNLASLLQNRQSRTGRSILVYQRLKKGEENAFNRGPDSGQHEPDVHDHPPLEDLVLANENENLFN


Legend:
[1] = molecular target: T1, lamin-conjugated miniTurboID tagged with V5 (V5-mT-Lamin) (Drosophila); assay: proximity labelling; S2 cells expressing V5-mT-Lamin or V5-mT, 0.5 mM CuSO4 and 50 uM biotin for 6 h, streptavidin magnetic beads, 2DICAL mass spectrometry in triplicate; >2-fold enrichment and P<0.05 over V5-mT
[2] = molecular target: T2, Flag-tagged PIG-B (PIG-B-Flag) (Drosophila); assay: affinity purification with mass spectrometry; S2 cells stably expressing PIG-B-Flag crosslinked with 1% formaldehyde, sonicated in RIPA buffer, anti-DYKDDDDK magnetic beads, 2DICAL; S2 cells without PIG-B-Flag as control; hits >2-fold over control
[3] = molecular target: T1, lamin-conjugated miniTurboID tagged with V5 (V5-mT-Lamin) (Drosophila); assay: proximity labelling; S2 cells expressing V5-mT-Lamin or V5-mT, 0.5 mM CuSO4 and 50 uM biotin for 6 h, streptavidin magnetic beads, immunoblot with anti-PIG-B

Row | binding [1] | binding [2] | binding [3] | Binder
1 | binds | binds | – | Otefin (Ote) (protein, UniProt P20240 1-424) MADVDDFDSLSNAELRAKMLAQGLPNIPVTDSSRKVLVKRLRASIGGQASPAASPKKTNRRETLAPAPGAPSAPAAASTPVDKLDGNKVAPATKARRTITAAEAKEPVRRLPEEAIRRRPDEADRLRSEEPVAARKPTTAPAAQPVQTRRTSTSSGSERKVVEPLRKPETIVEQPASSKRADREENYLKVNSLIVLESDEEEDEQLVQAADLVEQEHAARQKTTKLASSGTTTYEYKSKVVEPPRRQVYEATAAPVLPPSVPSARAQTTSSTRSYDYASNPAPGRYSSFVRTAAQGYVTAEAPPVASYSSSYKRTYANELSDDTDSKEDQYESTFARNLARLRAERIGDRISPYSRRTLASGNAGSGSLGYEPRARRSLRPNDNSVSEAFNRWLNSLEQKYHIKSKLFIVLLVLLLIGVYYIFY
2 | binds | binds | – | Lamin-B receptor (LBR) (protein, UniProt Q8MLV1 1-741) MQHSPSTTTDHIHFAARFFDRNSYTMDRRLRRPRRTEDVSSGPLLAQSKQPSLLPVTRRTGSVTAAGATATATATAGPATRTRASPSRNKVVAPPSPDLGPRTRRSSRPRSSVGPLTGSGSGSSLPIKAAIKARTPIPEVSEVSSPIRLSTSNLPMTLTTNTSSGAPNKAFNTSSVNSGNSFSRTTTSSTTTTTERIEIRAEGDGEVDTDSIRKRITERLRRSVSKTISNLAGTPVTNTEEGSRYSRSVSRSVYDDEKSSKRSYSTGEEDIDEEDELEEDQFRSFNVTRKSATPAEISCRQLKAPREFGGWLGAFLFLLLLPTAVYYLTWSCTARNACQFKHLNLGILLDVNYLTRQVFQPRVVGAFAAYQVVVFLLVALLPGRRVHLTRETYKFNCLAVSLTLLIASGVAEYLKYPVVTFVLRHYLRFCIFGLVGAFVAAAWSYWLVDTAKYNVLRQTLTNDYGRTGSFVVDFALGRQLNPKWLGRVDWKQFQYRLSLVTTLIYATCYIYQTLVWPQKPQLGEQEGYLYQAKYYWNNVNYDPATLFSASCLLFYVLDAIIFEHHLSSSFELQHEGYGCLLLLRYAATPYLLTAVTKYFYEQRVPISCWYAPLAVAALLSLGLLVKRFSCAYKYKYRLNSQSPIFANIETIHTYQGSRLLLSGMWGWVRQPNYLGDIVALLALAAPMALRPAWPPVLGLSLIILLLLHRATRANARNQARYHSSWQRYSTQVRSYILPRVY
3 | binds | – | – | Bicaudal D (BicD) (protein, UniProt P16568 1-782) MSSASNNGPSADQSVQDLQMEVERLTRELDQVSSASAQSAQYGLSLLEEKSALQQKCEELETLYDNTRHELDITQEALTKFQTSQKVTNKTGIEQEDALLNESAARETSLNLQIFDLENELKQLRHELERVRNERDRMLQENSDFGRDKSDSEADRLRLKSELKDLKFRETRMLSEYSELEEENISLQKQVSSLRSSQVEFEGAKHEIRRLTEEVELLNQQVDELANLKKIAEKQMEEALETLQGEREAKYALKKELDGHLNRESMYHISNLAYSIRSNMEDNASNNSDGEEENLALKRLEADLSTELKSPDGTKCDLFSEIHLNELKKLEKQLESMESEKTHLTANLREAQTSLDKSQNELQNFMSRLALLAAHVDALVQLKKQIDVKEQGKEGGQKKDELEQQLRALISQYANWFTLSAKEIDGLKTDIAELQKGLNYTDATTTLRNEVTNLKNKLLATEQKSLDLQSDVQTLTHISQNAGQSLGSARSTLVALSDDLAQLYHLVCTVNGETPTRVLLDHKTDDMSFENDSLTAIQSQFKSDVFIAKPQIVEDLQGLADSVEIKKYVDTVSDQIKYLKTAVEHTIDMNKHKIRSEGGDALEKVNTEEMEELQEQIVKLKSLLSVKREQIGTLRNVLKSNKQTAEVALTNLKSKYENEKIIVSDTMSKLRNELRLLKEDAATFSSLRAMFAARCEEYVTQVDDLNRQLEAAEEEKKTLNQLLRLAVQQKLALTQRLEEMEMDREMRHVRRPMPAQRGTSGKSSFSTRPSSRNPASSNANPF
4 | – | binds | – | Torsin (protein, UniProt O77277 25-340) VDPLTIGAVGAVALGAYFKEHTYCRFAECCDDRNIPARIDELERSLERTLIGQHIVRQHIVPALKAHIASGNKSRKPLVISFHGQPGTGKNFVAEQIADAMYLKGSRSNYVTKYLGQADFPKESEVSNYRVKINNAVRDTLRSCPRSLFIFDEVDKMPSGVFDQLTSLVDYNAFVDGTDNTKAIFIFLSNTAGSHIASHLGSVMKNGRLREDTRLSDFEPLLRKAAYNMDGGMKKTTMIESHVIDHFIPFLPMEKAHVIKCLEAELLRWRRDPKQANNQKIIEDIINSSISYDRTHSLFAISGCKTLEKKVAMAIY
5 | – | – | binds | PIG-B (endogenous) (enzyme, UniProt Q9VZM5 1-561) MKLIYVFLLILAVRLASVFVVQTYYVPDEYWQSLEVAHKLTFGYGYLTWEWVQGIRSYVYPLLIAGLYKILALLQLDSAHLLVVLPRIVQALLSAYSDYRFFVWTGKRKWALFLILVPWFWFYTGSRTLANTLEASLTTIALSYFPWYGESTAYLWPAAICCFLRPTAAVIWLPLSLYHLRRSRQNVLELILKRFVLIGLLVAGLGIAIDTYWHGQLIVTPYEFLKYNIFNNIGSFYGSHPWHWYFSVGLPTVLGINTLPFIFGVMETVKKSEKYPVSKQLLITIFLTLVVLSAVEHKEFRFVSPLLPLCLYVITDALSRWSIRASSTMLWTTALVILVGNVMPAWYLSTVHQKGPIELMPKLREIAREYRDEREHQANILFLMPCHSTPYYSHIHQNVTMRFLTCEPNLEKKEQYKDEADRFFEDPVHWINSHIPMHPLTALPTHVVLFDPLAENISVFLRNYRLLHRIEHAEVTRLEGSQALVDQWSEALGAQSPNLASLLQNRQSRTGRSILVYQRLKKGEENAFNRGPDSGQHEPDVHDHPPLEDLVLANENENLFN
6 | – | binds | – | Krueppel homolog 2 (Kr-h2) (protein, UniProt Q9V447 1-276) MSAPTDQPPRSEGAQTNSSERSSQQQEQPQQSQSQNVPAKLLQHFQTNRIDSALWALRLLVIFFTVSYVLPIFTSQQSAFSKVMLANAAISALRLHQRLPAFAFSREFLARLFAEDSCHYMMYSLIFFNIRPSLLVLIPVLLYSVLHASSYSLKLLDLIGQNSWWGARFIISIVEFQAANILKATAFCEIFIMPYAIVLAFMNHAGLMTPVIYYHYLVMRYSSRRNPYPRNAFAELRITFEALAARSPPAFAKIIRGGIGFVNRLAPQLQPAAAQE

These are yes or no findings as the source states them, for the method shown. In cells and extracts the contact can be indirect. A yes stands for co-enrichment or nearness to the bait. Other partners may have been found. Where a sequence is shown, tags or fusion partners need not be part of it.
